Results as given in US7338807.
No constants are given. Whether binding was seen depends on the method and setting. Binding seen in cells or lysates may run through a third protein. Some entries that bind do so weakly or less than the wild type.

The chains behind the UniProt entries cited, without tags or fusion partners. Where a name states a change or a piece, a line headed by the entry shows the natural chain unless it says otherwise.
UniProt P19447: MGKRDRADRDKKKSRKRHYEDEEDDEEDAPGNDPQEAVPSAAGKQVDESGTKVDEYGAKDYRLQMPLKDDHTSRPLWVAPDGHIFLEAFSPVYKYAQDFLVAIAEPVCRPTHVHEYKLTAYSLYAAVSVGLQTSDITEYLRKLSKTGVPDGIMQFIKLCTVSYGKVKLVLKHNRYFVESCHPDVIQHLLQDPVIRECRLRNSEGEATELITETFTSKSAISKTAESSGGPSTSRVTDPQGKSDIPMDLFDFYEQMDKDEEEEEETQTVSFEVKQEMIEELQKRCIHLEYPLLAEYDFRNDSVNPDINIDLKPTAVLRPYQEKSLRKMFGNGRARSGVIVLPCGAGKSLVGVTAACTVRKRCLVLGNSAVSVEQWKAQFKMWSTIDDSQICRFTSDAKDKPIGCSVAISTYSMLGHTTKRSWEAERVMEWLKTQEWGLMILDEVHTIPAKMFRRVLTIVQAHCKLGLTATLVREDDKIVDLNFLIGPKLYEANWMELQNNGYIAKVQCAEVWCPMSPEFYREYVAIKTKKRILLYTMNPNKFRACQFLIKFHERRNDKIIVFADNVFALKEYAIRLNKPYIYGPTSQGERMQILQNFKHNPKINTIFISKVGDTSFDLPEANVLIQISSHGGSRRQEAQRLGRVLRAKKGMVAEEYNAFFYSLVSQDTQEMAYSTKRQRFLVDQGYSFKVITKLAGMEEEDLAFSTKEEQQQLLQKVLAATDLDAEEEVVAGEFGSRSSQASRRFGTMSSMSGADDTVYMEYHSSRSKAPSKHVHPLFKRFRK

What was measured:
[1] = target: GST-p53-WT (glutathione S-transferase fused to human wild type p53) (human) (UniProt P04637); assay: competition pull-down; peptide pre-incubated with GST-p53-WT beads (12, 120, 596 nM)
[2] = target: GST-p53-WT (glutathione S-transferase fused to human wild type p53) (human) (UniProt P04637); assay: competition pull-down, FIG. 4
[3] = target: XPB protein, full length, in vitro-translated, 35S-labelled (human) (UniProt P19447); assay: competition pull-down; peptide pre-incubated with GST-p53-WT beads (85 and 424 nM)
[4] = target: XPB protein, full length, in vitro-translated, 35S-labelled (human) (UniProt P19447); assay: competition pull-down, FIG. 4

B1: Peptide #464 (residues 464 to 478 of XPB) (peptide)
peptide: LGLTATLVREDDKIV
B1 was tested, and the binding [1] was “binds” and the binding [2] was “binds”.

B2: Peptide #p53cp (residues 367 to 387 of p53) (peptide)
peptide: SHLKSKKGQSTSRHKKLMFKT
With B2 the binding [3] was “binds” and the binding [4] was “binds”.
